The other results are listed elsewhere or left out. Shown are side measurements of this screen, not its main read-out; they come without a call. Most of these compounds were active or inconclusive in the main read-out, so they are no random draw. The note in brackets gives the kind of curve behind each potency; many fits are weak.
Assay: qHTS Assay for Lipid Storage Modulators in Drosophila S3 Cells;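 for cell number change: cells counted by Cell Tracker Red CMTPX staining in the red channel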
Settings: BODIPY lipid droplet fluorescence, 18-24 h; for cell number change: measured here: cell count max response, cells fed with added oleic acid
In short: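 Drosophila S3 cells got compounds at several concentrations plus oleic acid (400 uM solution). Laser-scanning cytometry with 488 nm excitation read lipid droplets at 500-530 nm and cells at 575-640 nm. Percent activity was relative to 20 uM Triacsin C.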

[1] = measured here: cell number channel AC50, cells fed with added oleic acid
[2] = measured here: lipid fluorescence (Fed channel) AC50, cells fed with added oleic acid

Row | SMILES | cell number change [%] | AC50 [1] | AC50 [2]
1 | C=CCN1N=C(/C=C/c2ccc(C)cc2)CCC1=O | -58.6 | 16.4 µM [falling, partial curve] | 11.6 µM [falling, partial curve]
2 | Cc1ccc(C(=O)N(c2ccccn2)C(C)c2ccco2)cc1 (stereo not drawn) | 7.93 |  | 29.1 µM [falling, single point]
3 | COc1cccc(N2CCN(Cc3cccnc3)CC2)c1 | -4.35 |  | 0.00461 µM [falling, full curve, poor fit]
4 | O=C(COc1ccc2ccccc2c1)Nc1ccc2c3c(cccc13)CC2 | -30.5 | 29.1 µM [falling, single point] | 16.4 µM [falling, single point]
5 | CC(Sc1ccccn1)C(=O)Nc1ccccc1 (stereo not drawn) | 11.9 |  | 11.6 µM [rising, single point]
6 | Nc1nn(-c2cccc(F)n2)cc1-c1ccccc1 | 27.4 |  | 
7 | CCC(CC)NC(=O)Nc1ccc(F)c(Cl)c1 | -37.5 | 1.16 µM [falling, full curve, poor fit] | 0.00517 µM [falling, full curve, poor fit]
8 | COc1ccccc1NC(=O)c1c(N=Cc2ccccc2O)cnn1C | 102 | 23.1 µM [rising, partial curve, poor fit] | 0.58 µM [rising, single point]
9 | O=C(CSc1nc2ccccc2c(=O)[nH]1)N1CCCCCC1 | -14.8 |  | 18.4 µM [rising, partial curve]
10 | COc1ccc(NC(=O)c2cc(=O)c3ccccc3o2)cc1Cl | 5.28 |  | 29.1 µM [rising, single point]
11 | Cc1n[nH]c(C)c1CCc1nc2c3ccccc3nc(SCC(N)=O)n2n1 | 5.94 |  | 0.651 µM [rising, single point]
12 | O=C(NCC1OCCCN1S(=O)(=O)c1cc(F)ccc1F)C(=O)NC1CCCC1 (stereo not drawn) | 2.64 |  | 
13 | Nc1cc(Oc2ccc(Cl)cc2Cl)nc(N)n1 | 16.1 | 0.0461 µM [rising, full curve, poor fit] | 23.1 µM [rising, single point]
14 | O=C(c1cc2ccccc2oc1=O)N(Cc1ccc2c(c1)OCO2)Cc1ccco1 | -2.8 |  | 2.31 µM [rising, single point]
15 | O=C(CC(=O)N/N=C/c1c(Cl)cccc1Cl)NCc1cccnc1 | -1.47 |  | 32.6 µM [falling, single point]
16 | O=C(C(c1ccccc1)c1ccccc1)N1CCOCC1 | 1.48 |  | 
17 | Cc1cc(=O)oc2cc(NC(=O)c3cccc(Br)c3)ccc12 | 18.8 |  | 6.51 µM [rising, single point]
18 | O=C(C1CCCN(S(=O)(=O)c2ccccc2)C1)N1CCN(c2ccccc2)CC1 (stereo not drawn) | -19.3 |  | 29.1 µM [falling, single point]
19 | CCN(C(=O)CSc1ccc(S(=O)(=O)N2CCOCC2)cn1)c1ccccc1 | -14.1 |  | 0.00461 µM [falling, full curve, poor fit]

Row | SMILES | cell number change [%] | AC50 [1] | AC50 [2]
20 | Cc1ccc(S(=O)(=O)N2CCN(C(=O)CCC(=O)NCc3cccc(C(F)(F)F)c3)CC2)cc1 | -50 | 0.517 µM [falling, full curve] | 
21 | CC1=C(C(=O)OC2CCCCCCC2)C(c2cccc(O)c2)NC(=O)N1 (stereo not drawn) | 5.35 | 3.26 µM [rising, single point] | 0.082 µM [falling, full curve, poor fit]
22 | O=C(Nc1nc(-c2cccc3ccccc23)cs1)c1ccc2c(c1)S(=O)(=O)c1ccccc1C2=O | 88.2 | 29.1 µM [rising, single point] | 
23 | Clc1ccc(/C=N\Nc2ccccc2)cc1 | 19.1 |  | 29.1 µM [rising, single point]
24 | O=C(O)CN1CCN(Cc2ccccc2)C1=O | -18.8 | 2.31 µM [falling, partial curve, poor fit] | 4.61 µM [falling, single point]
25 | O=C(CN1CCN(S(=O)(=O)c2cccc(Cl)c2)CC1)NCC1(N2CCOCC2)CCCCC1 | -11.3 |  | 1.16 µM [falling, partial curve, poor fit]
26 | Cc1cc(NC(=O)c2ccc(F)cc2)n(-c2ccccc2)n1 | -9.72 |  | 29.1 µM [rising, single point]
27 | O=C(CSc1nc2ccccc2[nH]1)Nc1nc(-c2cccc(Br)c2)cs1 | -50.6 | 20.6 µM [falling, single point] | 20.6 µM [falling, single point]
28 | OCCN1CCN(c2cc(C(F)(F)F)nc3ccccc23)CC1 | -2.27 |  | 2.91 µM [rising, single point]
29 | Cc1cc(C)cc(NC(=O)COC(=O)CNC(=O)C2CCCCC2)c1 | -12.6 | 0.0731 µM [falling, full curve, poor fit] | 0.651 µM [falling, full curve]
30 | COc1ccc(CC(=O)Nc2nc(-c3cccc([N+](=O)[O-])c3)cs2)cc1 | -28.2 |  | 
31 | O=C(Nc1ccccc1F)N(CCCN1CCOCC1)Cc1cc2cc3c(cc2[nH]c1=O)OCCO3 | 44.2 | 18.4 µM [rising, single point] | 29.1 µM [rising, single point]
32 | COc1ccc(-n2c(SCC(=O)N(C)c3ccccc3)nc3c([nH]c4ccccc43)c2=O)cc1OC | 22.6 |  | 7.31 µM [rising, full curve, poor fit]
33 | COc1cccc(C(=O)NCc2ccc3c(c2)OCO3)c1OC | 5.22 |  | 18.4 µM [rising, single point]
34 | O=C(Cc1cccc(NC(=O)C2CCN(C(=O)C3CCC3)CC2)c1)Nc1cccc(C(=O)N2CCCC2)c1 | -4.09 | 0.00517 µM [falling, full curve, poor fit] | 6.51 µM [falling, single point]
35 | COc1cccc(OCCCCSc2ncccn2)c1 | 26.1 |  | 
36 | Cc1cccc(C(=O)Nc2ccnc(-c3ccncc3)n2)c1 | -22.6 |  | 
37 | Cc1ccc2c(c1)cc1c(=O)n(CC(=O)NCCN3CCCC3)nc(C)n12 | -16.2 |  | 
38 | O=C(NCCCNC(=O)c1ccc(Cl)cc1Cl)c1ccccn1 | 12.4 |  | 6.51 µM [falling, single point]

Row | SMILES | cell number change [%] | AC50 [1] | AC50 [2]
39 | CN(Cc1nnc(SCC(=O)NCCc2ccccc2)n1C)S(=O)(=O)c1ccccc1 | -51.6 | 20.6 µM [falling, partial curve] | 3.66 µM [falling, partial curve, poor fit]
40 | Nc1nnc(CCS(=O)(=O)c2cc(Cl)ccc2Cl)s1 | 50.5 | 29.1 µM [rising, single point] | 
41 | O=C(COC(=O)C1CC1)Nc1ccc(Cl)cn1 | 27.1 |  | 7.31 µM [rising, partial curve, poor fit]
42 | O=C(CNC(=O)c1ccccn1)N=Nc1c(O)[nH]c2ccccc12 | -41.9 | 2.59 µM [falling, partial curve, poor fit] | 
43 | COc1ccc(C(=O)Nc2cccc(-c3nnc(-c4ccco4)o3)c2)cc1 | -28.3 |  | 6.51 µM [rising, single point]
44 | CCn1cc([N+](=O)[O-])c(C(=O)N2N=C(c3cccc4ccccc34)CC2c2ccccc2O)n1 (stereo not drawn) | -71 | 16.4 µM [falling, partial curve] | 25.9 µM [falling, single point]
45 | Cc1cc(C)c(C#N)c(=N)o1 | -4.78 |  | 
46 | CCn1c2ccccc2c2nnc(SCC(=O)Nc3ccc4c(c3)OCO4)nc21 | -6.21 |  | 0.184 µM [rising, full curve, poor fit]
47 | O=C(CN1C(=O)c2ccccc2C1=O)Nc1nccs1 | -14.3 | 0.146 µM [falling, full curve] | 0.13 µM [falling, full curve]
48 | COc1ccc(Cl)cc1C(=O)NCCN(C)C | -77.1 | 32.6 µM [falling, partial curve] | 0.092 µM [falling, full curve, poor fit]
49 | O=C(CCCSc1nnc(Nc2ccccc2F)s1)N1CCOCC1 | 27 | 6.51 µM [falling, partial curve, poor fit] | 
50 | O=S(=O)(c1ccccc1)N1N=C(c2ccccc2)CC1c1ccccc1 (stereo not drawn) | -2.18 |  | 
51 | CSc1ccc(S(=O)(=O)NCC(=O)OCC(=O)N(C)CC(=O)Nc2ccccc2Cl)cc1[N+](=O)[O-] | -50 | 29.1 µM [falling, single point] | 2.91 µM [falling, full curve]
52 | Cc1cc(SCC(=O)c2ccccc2)nc(C)n1 | 33.9 | 29.1 µM [rising, single point] | 29.1 µM [rising, single point]
53 | CSCCC(NC(=O)c1ccccc1C)C(=O)O (stereo not drawn) | -0.135 |  | 6.51 µM [rising, partial curve, poor fit]
54 | Cc1ccc(NS(=O)(=O)c2c(C)[nH]c(C)c2C(=O)N2CCCCC2)c(Br)c1 | -11.2 |  | 29.1 µM [falling, single point]
55 | O=C(c1cccc(C(F)(F)F)c1)N1CCCC1 | -171 | 23.1 µM [falling, partial curve] | 18.4 µM [falling, partial curve]
56 | COc1ccccc1C(=O)N/C(N)=N/c1nc2ccccc2o1 | -24.1 |  | 0.206 µM [falling, full curve, poor fit]
57 | CCCCC(CC)C(=O)NCCc1ccc(S(N)(=O)=O)cc1 (stereo not drawn) |  | 0.058 µM [rising, partial curve] | 0.116 µM [falling, full curve, poor fit]

From PubChem BioAssay AID2685 (National Center for Advancing Translational Sciences (NCATS), 2010)
